Results: paper PMC8322311
Results are given in words; binding and its absence hold for the method and conditions named. In cells and extracts the contact can be indirect. Some results given as binding are weak or reduced against the parent protein; the word gives no strength. Where a sequence is shown, tags or fusion partners need not be part of it.

What was measured:
Flag-SLITRK5 [1] = target: T1, Flag-SLITRK5 (UniProt O94991); experiment: co-IP; HEK293T cells transfected with Flag-SLITRK5 and HA-PTCH1, with BSA or SHH treatment; Flag or HA agarose; immunoblot
T1 sequence: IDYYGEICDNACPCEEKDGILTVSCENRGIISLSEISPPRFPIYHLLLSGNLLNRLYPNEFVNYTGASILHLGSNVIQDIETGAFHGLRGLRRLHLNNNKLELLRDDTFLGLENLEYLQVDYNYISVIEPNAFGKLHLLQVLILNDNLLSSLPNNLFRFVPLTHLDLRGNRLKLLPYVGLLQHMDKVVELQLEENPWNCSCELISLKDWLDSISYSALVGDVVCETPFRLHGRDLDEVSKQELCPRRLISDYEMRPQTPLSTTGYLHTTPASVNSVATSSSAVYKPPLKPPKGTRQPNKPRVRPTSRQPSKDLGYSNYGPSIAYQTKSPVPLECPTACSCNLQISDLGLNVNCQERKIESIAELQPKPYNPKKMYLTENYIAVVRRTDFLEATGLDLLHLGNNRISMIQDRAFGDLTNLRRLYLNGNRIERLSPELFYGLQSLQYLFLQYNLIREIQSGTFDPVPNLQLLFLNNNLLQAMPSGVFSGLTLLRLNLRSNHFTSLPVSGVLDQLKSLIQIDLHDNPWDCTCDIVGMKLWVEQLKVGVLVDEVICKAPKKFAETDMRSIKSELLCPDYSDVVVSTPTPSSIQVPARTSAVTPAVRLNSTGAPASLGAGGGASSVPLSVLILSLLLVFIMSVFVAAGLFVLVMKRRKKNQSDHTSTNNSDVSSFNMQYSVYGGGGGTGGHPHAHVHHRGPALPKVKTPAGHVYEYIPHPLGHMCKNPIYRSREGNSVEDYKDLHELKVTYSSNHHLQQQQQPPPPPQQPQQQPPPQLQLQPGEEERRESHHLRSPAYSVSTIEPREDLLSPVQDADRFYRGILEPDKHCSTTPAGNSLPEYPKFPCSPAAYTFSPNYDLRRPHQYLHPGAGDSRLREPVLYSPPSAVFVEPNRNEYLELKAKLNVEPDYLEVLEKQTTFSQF

Flag-SLITRK5 [2] = target: T1, Flag-SLITRK5; experiment: co-IP; C3H10T1/2 cells transfected with Flag-SLITRK5 and HA-PTCH1, with or without SHH (Supplementary Fig. 3e); Flag or HA agarose
HA-PTCH1 = target: T2, HA-PTCH1 (UniProt Q13635); experiment: co-IP; HEK293T cells transfected with Flag-SLITRK5 and HA-PTCH1, with BSA or SHH treatment; Flag or HA agarose; immunoblot
T2 sequence: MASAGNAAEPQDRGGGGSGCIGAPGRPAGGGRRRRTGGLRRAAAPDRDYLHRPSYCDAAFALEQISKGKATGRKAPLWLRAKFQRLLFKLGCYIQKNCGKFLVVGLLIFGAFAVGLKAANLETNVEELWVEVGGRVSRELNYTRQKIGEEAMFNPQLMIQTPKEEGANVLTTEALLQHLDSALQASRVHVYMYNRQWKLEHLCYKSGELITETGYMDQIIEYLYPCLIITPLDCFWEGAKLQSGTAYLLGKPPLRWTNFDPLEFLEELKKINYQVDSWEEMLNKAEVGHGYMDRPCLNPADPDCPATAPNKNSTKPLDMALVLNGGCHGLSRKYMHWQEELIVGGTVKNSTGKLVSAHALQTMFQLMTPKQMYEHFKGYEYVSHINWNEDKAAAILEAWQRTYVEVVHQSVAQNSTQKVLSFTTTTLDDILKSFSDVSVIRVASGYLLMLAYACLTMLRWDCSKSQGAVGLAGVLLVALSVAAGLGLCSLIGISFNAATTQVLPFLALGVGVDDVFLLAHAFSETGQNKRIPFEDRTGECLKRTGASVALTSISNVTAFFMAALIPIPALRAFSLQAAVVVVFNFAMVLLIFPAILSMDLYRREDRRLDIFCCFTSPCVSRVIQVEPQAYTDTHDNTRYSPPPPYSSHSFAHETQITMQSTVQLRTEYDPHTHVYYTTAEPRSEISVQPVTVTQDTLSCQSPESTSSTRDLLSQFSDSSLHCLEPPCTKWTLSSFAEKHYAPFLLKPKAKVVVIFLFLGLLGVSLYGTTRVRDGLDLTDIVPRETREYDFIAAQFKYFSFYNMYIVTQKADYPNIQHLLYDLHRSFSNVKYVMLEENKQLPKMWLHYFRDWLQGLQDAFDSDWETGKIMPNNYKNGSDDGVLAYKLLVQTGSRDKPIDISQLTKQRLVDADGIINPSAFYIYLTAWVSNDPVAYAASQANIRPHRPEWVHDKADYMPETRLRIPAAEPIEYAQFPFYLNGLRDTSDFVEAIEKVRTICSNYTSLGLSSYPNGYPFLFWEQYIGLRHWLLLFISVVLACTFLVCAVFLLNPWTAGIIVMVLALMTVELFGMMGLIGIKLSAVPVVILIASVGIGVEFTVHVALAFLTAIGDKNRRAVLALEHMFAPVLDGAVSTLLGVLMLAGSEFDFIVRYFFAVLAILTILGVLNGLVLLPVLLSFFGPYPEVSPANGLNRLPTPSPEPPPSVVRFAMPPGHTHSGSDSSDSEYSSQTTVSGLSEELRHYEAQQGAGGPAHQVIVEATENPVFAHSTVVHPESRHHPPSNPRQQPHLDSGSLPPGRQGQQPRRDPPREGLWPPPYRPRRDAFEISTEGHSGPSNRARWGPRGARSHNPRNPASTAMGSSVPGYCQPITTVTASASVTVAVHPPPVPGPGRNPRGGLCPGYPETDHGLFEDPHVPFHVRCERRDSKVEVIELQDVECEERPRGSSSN

Binder	binding (Flag-SLITRK5 [1])	binding (Flag-SLITRK5 [2])	binding (HA-PTCH1)
HA-PTCH1 (receptor, UniProt Q13635 1-1447) MASAGNAAEPQDRGGGGSGCIGAPGRPAGGGRRRRTGGLRRAAAPDRDYLHRPSYCDAAFALEQISKGKATGRKAPLWLRAKFQRLLFKLGCYIQKNCGKFLVVGLLIFGAFAVGLKAANLETNVEELWVEVGGRVSRELNYTRQKIGEEAMFNPQLMIQTPKEEGANVLTTEALLQHLDSALQASRVHVYMYNRQWKLEHLCYKSGELITETGYMDQIIEYLYPCLIITPLDCFWEGAKLQSGTAYLLGKPPLRWTNFDPLEFLEELKKINYQVDSWEEMLNKAEVGHGYMDRPCLNPADPDCPATAPNKNSTKPLDMALVLNGGCHGLSRKYMHWQEELIVGGTVKNSTGKLVSAHALQTMFQLMTPKQMYEHFKGYEYVSHINWNEDKAAAILEAWQRTYVEVVHQSVAQNSTQKVLSFTTTTLDDILKSFSDVSVIRVASGYLLMLAYACLTMLRWDCSKSQGAVGLAGVLLVALSVAAGLGLCSLIGISFNAATTQVLPFLALGVGVDDVFLLAHAFSETGQNKRIPFEDRTGECLKRTGASVALTSISNVTAFFMAALIPIPALRAFSLQAAVVVVFNFAMVLLIFPAILSMDLYRREDRRLDIFCCFTSPCVSRVIQVEPQAYTDTHDNTRYSPPPPYSSHSFAHETQITMQSTVQLRTEYDPHTHVYYTTAEPRSEISVQPVTVTQDTLSCQSPESTSSTRDLLSQFSDSSLHCLEPPCTKWTLSSFAEKHYAPFLLKPKAKVVVIFLFLGLLGVSLYGTTRVRDGLDLTDIVPRETREYDFIAAQFKYFSFYNMYIVTQKADYPNIQHLLYDLHRSFSNVKYVMLEENKQLPKMWLHYFRDWLQGLQDAFDSDWETGKIMPNNYKNGSDDGVLAYKLLVQTGSRDKPIDISQLTKQRLVDADGIINPSAFYIYLTAWVSNDPVAYAASQANIRPHRPEWVHDKADYMPETRLRIPAAEPIEYAQFPFYLNGLRDTSDFVEAIEKVRTICSNYTSLGLSSYPNGYPFLFWEQYIGLRHWLLLFISVVLACTFLVCAVFLLNPWTAGIIVMVLALMTVELFGMMGLIGIKLSAVPVVILIASVGIGVEFTVHVALAFLTAIGDKNRRAVLALEHMFAPVLDGAVSTLLGVLMLAGSEFDFIVRYFFAVLAILTILGVLNGLVLLPVLLSFFGPYPEVSPANGLNRLPTPSPEPPPSVVRFAMPPGHTHSGSDSSDSEYSSQTTVSGLSEELRHYEAQQGAGGPAHQVIVEATENPVFAHSTVVHPESRHHPPSNPRQQPHLDSGSLPPGRQGQQPRRDPPREGLWPPPYRPRRDAFEISTEGHSGPSNRARWGPRGARSHNPRNPASTAMGSSVPGYCQPITTVTASASVTVAVHPPPVPGPGRNPRGGLCPGYPETDHGLFEDPHVPFHVRCERRDSKVEVIELQDVECEERPRGSSSN	binds	binds	
Flag-SLITRK5 (receptor, UniProt O94991 41-958) IDYYGEICDNACPCEEKDGILTVSCENRGIISLSEISPPRFPIYHLLLSGNLLNRLYPNEFVNYTGASILHLGSNVIQDIETGAFHGLRGLRRLHLNNNKLELLRDDTFLGLENLEYLQVDYNYISVIEPNAFGKLHLLQVLILNDNLLSSLPNNLFRFVPLTHLDLRGNRLKLLPYVGLLQHMDKVVELQLEENPWNCSCELISLKDWLDSISYSALVGDVVCETPFRLHGRDLDEVSKQELCPRRLISDYEMRPQTPLSTTGYLHTTPASVNSVATSSSAVYKPPLKPPKGTRQPNKPRVRPTSRQPSKDLGYSNYGPSIAYQTKSPVPLECPTACSCNLQISDLGLNVNCQERKIESIAELQPKPYNPKKMYLTENYIAVVRRTDFLEATGLDLLHLGNNRISMIQDRAFGDLTNLRRLYLNGNRIERLSPELFYGLQSLQYLFLQYNLIREIQSGTFDPVPNLQLLFLNNNLLQAMPSGVFSGLTLLRLNLRSNHFTSLPVSGVLDQLKSLIQIDLHDNPWDCTCDIVGMKLWVEQLKVGVLVDEVICKAPKKFAETDMRSIKSELLCPDYSDVVVSTPTPSSIQVPARTSAVTPAVRLNSTGAPASLGAGGGASSVPLSVLILSLLLVFIMSVFVAAGLFVLVMKRRKKNQSDHTSTNNSDVSSFNMQYSVYGGGGGTGGHPHAHVHHRGPALPKVKTPAGHVYEYIPHPLGHMCKNPIYRSREGNSVEDYKDLHELKVTYSSNHHLQQQQQPPPPPQQPQQQPPPQLQLQPGEEERRESHHLRSPAYSVSTIEPREDLLSPVQDADRFYRGILEPDKHCSTTPAGNSLPEYPKFPCSPAAYTFSPNYDLRRPHQYLHPGAGDSRLREPVLYSPPSAVFVEPNRNEYLELKAKLNVEPDYLEVLEKQTTFSQF			binds
